Drawing on patent publication US7348140B1, “Clinical indications for genotyping polymorphic variants of G-protein coupled receptors” (Acadia Pharmaceuticals, Inc., priority 2001, dated 2008), this text covers Fold for one compound.

Structures are written as SMILES. Substitutions are numbered along the chain they refer to.

Common to all, as to assay type: cell-based
In test [1] the target is T1, thromboxane receptor V176E (Glutamic Acid 176) (Homo sapiens, UniProt P21731, V176E).
T1 construct: expressed in transfected cells; host or cells: NIH-3T3
T1 sequence (P21731 1-343 V176E): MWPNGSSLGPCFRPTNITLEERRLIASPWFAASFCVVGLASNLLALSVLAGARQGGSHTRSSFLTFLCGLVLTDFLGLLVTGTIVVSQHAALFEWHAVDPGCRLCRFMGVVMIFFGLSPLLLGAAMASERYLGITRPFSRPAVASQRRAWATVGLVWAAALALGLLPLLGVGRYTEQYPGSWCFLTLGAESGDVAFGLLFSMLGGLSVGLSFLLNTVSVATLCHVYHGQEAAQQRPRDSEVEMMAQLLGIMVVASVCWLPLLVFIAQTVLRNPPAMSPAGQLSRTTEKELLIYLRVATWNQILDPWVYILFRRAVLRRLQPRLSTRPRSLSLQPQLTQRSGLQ
The test can be described thus: R-SAT functional assay, thromboxane receptor V176E. The conditions noted are these: shift in functional potency, Glutamic Acid 176 vs Valine 176.

The target in test [2] is T2, thromboxane receptor E94V (Valine 94) (Homo sapiens, UniProt P21731, E94V).
T2 construct: expressed in transfected cells; host or cells: NIH-3T3
T2 sequence (P21731 1-343 E94V): T1 sequence (P21731 1-343 V176E) with E94V, E176V
As to the kind of experiment: R-SAT functional assay, thromboxane receptor E94V. The conditions noted are these: shift in functional potency, Valine 94 vs Glutamine 94; Table 27.

Test [3] deals with T3, thromboxane receptor V80E (Glutamic Acid 80) (Homo sapiens, UniProt P21731, V80E).
T3 construct: expressed in transfected cells; host or cells: NIH-3T3
T3 sequence (P21731 1-343 V80E): T1 sequence (P21731 1-343 V176E) with V80E, E176V
The test can be described thus: R-SAT functional assay, thromboxane receptor V80E. As to conditions: shift in functional potency, Glutamic Acid 80 vs Valine 80; Table 26.

Take `CCCCC[C@H](O)/C=C/[C@H]1O[C@H]2C[C@H](O2)[C@@H]1C/C=C\CCCC(=O)O` [Thromboxane A2]: the values for the Fold in test [1], in test [2] and in test [3] were 7 fold, 2.3 fold and 11 fold, respectively.
